{
  "sequences": {"note": "Chains of the proteins cited; added tags and fusions are not shown.", "UniProt B5DE31, whole entry": "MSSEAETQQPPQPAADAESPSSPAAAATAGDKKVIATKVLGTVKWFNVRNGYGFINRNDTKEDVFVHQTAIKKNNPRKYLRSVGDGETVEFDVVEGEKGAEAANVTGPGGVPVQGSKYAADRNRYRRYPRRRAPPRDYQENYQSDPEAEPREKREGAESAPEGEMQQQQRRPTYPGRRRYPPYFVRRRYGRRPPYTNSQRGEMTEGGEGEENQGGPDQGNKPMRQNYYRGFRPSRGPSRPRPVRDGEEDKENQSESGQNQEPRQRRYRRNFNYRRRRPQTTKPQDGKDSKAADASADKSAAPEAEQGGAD"},
  "source": "paper PMC3771576",
  "target": "rYbx1 (wild type) (Danio rerio (zebrafish)) (UniProt B5DE31)",
  "assay": "EMSA",
  "details": "RNA EMSA; binding buffer and temperature not given; extract lysis buffer 20 mM Tris pH 8.0, 100 mM NaCl, 0.1 mM EDTA, 1 mM 6-aminohexanoic acid, 1 mM PMSF, 25% glycerol; recombinant protein; residues 1-310; protein details: 6xHis; label: 32P (radioactive); probe letters rebuilt from the primers and the genome",
  "note": "No signal at the amounts used counts as a negative.",
  "data": [
    {"sequence": "GGGAGAAAAGCCAGACCAUUCCUUCUUUUCAACGCACUCAUUUCCUAGCUAAAGCCAUCGUGACACACCUUAGCAUUCCUGUUCCCACCUACGAGACGCUGCAUUCGUCUCUGUAGAUGUCUGUGUGUGUGUGUGUUAGUUUCUUUUGACAGUAUUUGUGUCAGUGUCACUCCACAGGCAUUGCUGUAGUUGUUGCCAUUUUGGGUGUAAUCACGUUGUGUUGGUGUAAAGAGAAUAACCGAAUAAAGUUUAAUGAGGUAUAAAGGCUACUGUAAUGCAGUUUAAAAA [gapdh probe]", "values": [
      {"measurement": "binding result", "result": "no binding"}
    ]}
  ]
}
